According to PMC11212232:
Results are given in words; binding and its absence hold for the method and conditions named. In cells and extracts the contact can be indirect. Some entries that bind do so weakly or less than the wild type.

Amino acid sequences for entries named in this document (tags omitted).
UniProt Q9NYB9: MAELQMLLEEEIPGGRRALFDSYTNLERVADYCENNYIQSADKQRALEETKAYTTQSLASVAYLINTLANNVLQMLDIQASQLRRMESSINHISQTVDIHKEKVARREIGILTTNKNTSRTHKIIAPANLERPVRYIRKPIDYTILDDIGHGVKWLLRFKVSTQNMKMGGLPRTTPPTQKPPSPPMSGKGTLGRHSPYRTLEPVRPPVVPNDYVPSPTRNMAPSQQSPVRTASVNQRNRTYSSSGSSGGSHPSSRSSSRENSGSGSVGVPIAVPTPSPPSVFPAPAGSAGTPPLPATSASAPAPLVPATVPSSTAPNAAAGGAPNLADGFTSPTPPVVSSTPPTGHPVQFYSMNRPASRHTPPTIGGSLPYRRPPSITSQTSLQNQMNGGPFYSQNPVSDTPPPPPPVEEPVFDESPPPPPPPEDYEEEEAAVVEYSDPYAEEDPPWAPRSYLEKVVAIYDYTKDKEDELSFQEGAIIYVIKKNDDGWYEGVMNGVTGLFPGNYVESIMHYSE

Target: ABI2, natural (endogenous) form in HEK293T cells (human (endogenous in HEK293T)) (UniProt Q9NYB9)
Experiment: co-IP; natural (endogenous) ABI2 and CBLC in HEK293T lysate; antibody overnight at 4 C, protein A/G magnetic beads 4 h at 4 C, western blotting

binding: binds
B1: CBLC E3 ligase, natural (endogenous) form in HEK293T cells (enzyme, UniProt Q9ULV8 1-474)
chain: MALAVAPWGRQWEEARALGRAVRMLQRLEEQCVDPRLSVSPPSLRDLLPRTAQLLREVAHSRRAAGGGGPGGPGGSGDFLLIYLANLEAKSRQVAALLPPRGRRSANDELFRAGSRLRRQLAKLAIIFSHMHAELHALFPGGKYCGHMYQLTKAPAHTFWRESCGARCVLPWAEFESLLGTCHPVEPGCTALALRTTIDLTCSGHVSIFEFDVFTRLFQPWPTLLKNWQLLAVNHPGYMAFLTYDEVQERLQACRDKPGSYIFRPSCTRLGQWAIGYVSSDGSILQTIPANKPLSQVLLEGQKDGFYLYPDGKTHNPDLTELGQAEPQQRIHVSEEQLQLYWAMDSTFELCKICAESNKDVKIEPCGHLLCSCCLAAWQHSDSQTCPFCRCEIKGWEAVSIYQFHGQATAEDSGNSSDQEGRELELGQVPLSAPPLPPRPDLPPRKPRNAQPKVRLLKGNSPPAALGPQDPAPA
